PubChem BioAssay AID1224830, NIAID – 2016
The whole screen tested about 18,000 reagents; this is a part drawn at random. Over the whole deposit, about 2,900 (16%) got an active call. 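Calls are made per well; low scores hint the gene aids the LPS response, high scores that it dampens it.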 Entries without a mark were called inactive. Reagents against one gene are numbered here. Repeated entries: four replicate wells of each siRNA pool. No sequences are given here.

Test: 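Genes whose knock-down alters the TNF-alpha reporter response to LPS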 (primary screen)
Cells: human THP-1 monocytic leukaemia cells, TNF dual-luciferase reporter clone, PMA-differentiated to macrophage-like cells
Reagent: siRNA pool against human genes, 50 nM
Duration: LPS for 4 h, given about 3 days after siRNA transfection
Challenge: bacterial LPS (TLR4 ligand), 10 ng/ml
Detection: 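Ratio of firefly to renilla light, scaled to the plate median and expressed as a robust z-score per replicate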
Scale: TNF reporter robust z-score: higher = stronger TNF reporter response to LPS
Hit rule: 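Each well counts as active if its z-score is over 2.8 or under -1.5; controls are left without a call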

TNF reporter robust z-score, by gene symbol and reagent
PVRIG: #1 3.52 (active); #1 3.03 (active); #1 3.15 (active); #1 3.63 (active)
PDLIM5: #1 -0.42; #1 0.63; #1 -1.09; #1 0.58
TIAM2: #1 -1.07; #1 -0.1; #1 -0.32; #1 0.35
CNTNAP3: #1 -1.74 (active); #1 -1.8 (active); #1 -2.09 (active); #1 -1.29
LIX1: #1 -0.98; #1 -0.7; #1 -0.79; #1 -1.18
TRIM72: #1 -0.68; #1 -0.1; #1 -1.46; #1 0.22
FAM177A1: #1 -0.9; #1 -1.06; #1 -0.69; #1 -0.62
ZNF544: #1 -0.61; #1 0.24; #1 -0.45; #1 -0.41
BRMS1L: #1 0.66; #1 -0.02; #1 -0.81; #1 1.91
C6orf89: #1 1.16; #1 0.67; #1 -0.57; #1 -0.61
KANK2: #1 -1.33; #1 0; #1 -0.94; #1 1.83
MECOM: #1 0.24; #1 -0.99; #1 0.04; #1 0.66; #2 1.89; #2 1.96; #2 1.27; #2 2.26
TLE5: #1 1.37; #1 1.59; #1 -0.09; #1 -0.33
TSPAN2: #1 1.11; #1 0.68; #1 1.24; #1 0.32
DNAH8: #1 -0.79; #1 -0.39; #1 -0.26; #1 0.19
BOC: #1 1.7; #1 2.26; #1 1.37; #1 2.73
CDCA8: #1 -0.83; #1 -1.62 (active); #1 -1.9 (active); #1 -0.88
GOLGA4: #1 2.99 (active); #1 2.88 (active); #1 2.15; #1 2.57
SGPP1: #1 0.28; #1 1.25; #1 -0.15; #1 1.66
RRAGB: #1 0.24; #1 0.06; #1 0.59; #1 1.2
ACAA1: #1 -0.07; #1 0.62; #1 -0.13; #1 1.65
TRPM8: #1 -1.47; #1 -0.69; #1 -0.98; #1 -0.03
UROC1: #1 -0.75; #1 -0.6; #1 -0.54; #1 -0.32
ATP6AP1L: #1 0.48; #1 1.1; #1 0.35; #1 0.17
TAS2R8: #1 1.61; #1 1.06; #1 1.03; #1 0.57
SPACA1: #1 -1; #1 -0.43; #1 -0.18; #1 -0.56
PXDNL: #1 -1.32; #1 -1.42; #1 -1.14; #1 -0.45
GPS2: #1 0.27; #1 0.49; #1 -0.14; #1 1.48
CAMTA2: #1 -0.26; #1 -0.32; #1 -0.01; #1 0.31
PPP1R3A: #1 0.69; #1 -1.06; #1 0.26; #1 1.31
TMEM105: #1 -0.62; #1 -1.08; #1 -0.79; #1 -0.78
TRMT1: #1 0.69; #1 2.13; #1 1.81; #1 2.2
NHSL3: #1 -1.35; #1 -0.57; #1 -0.66
TBC1D14: #1 -0.09; #1 -0.31; #1 0.1; #1 -0.62
RAB13: #1 1.19; #1 0.93; #1 1.18; #1 1.07
